≈ marks a conversion by molar mass, not a printed value.
Test system: Candida albicans
Experiment: Antimicrobial activity against Candida albicans
Type: functional
How it was run: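 Broth microdilution in 96-well plates. Inoculum was a 24 h Candida albicans culture diluted in Sabouraud dextrose broth. Incubation was at 30 or 37 °C. MIC was taken as the lowest concentration giving at least 80% growth inhibition.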

C[C@@H]1[C@H](O)[C@@H](C)/C=C/C=C/C=C/C=C/C=C/C=C/C=C/[C@H](O[C@@H]2O[C@H](C)[C@@H](O)[C@H](N)[C@@H]2O)C[C@@H]2O[C@](O)(C[C@@H](O)C[C@@H](O)[C@H](O)CC[C@@H](O)C[C@@H](O)CC(=O)O[C@H]1C)C[C@H](O)[C@H]2C(=O)O [AMPHOTERICIN B]
MIC: 0.2 µg/mL (≈ 0.216 µM)
